Experimental data: PubChem BioAssay AID1224826 (NIAID, 2016)

Test: 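Knock-downs that raise or lower Tnf reporter signal after endotoxin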 (primary screen)
Cells: RAW264.7 G9 macrophages from mouse bearing reporters for p65 (GFP) and the Tnf promoter (mCherry)
Reagent: siRNA pool against mouse genes, 100 nM
Duration: 16 h of LPS stimulation, after 2 days of siRNA transfection
Conditions: bacterial lipopolysaccharide (Salmonella minnesota R595), 10 ng/ml
Detection: 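Nuclear mCherry signal of the Tnf promoter reporter measured by imaging after background removal, scaled to each plate median and turned into robust z-scores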
Direction: Tnf reporter robust z-score: higher = stronger Tnf promoter reporter signal after LPS
Rule for the call: 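a well counts as active at a score of -1.3 or below (Tlr4 knock-down control median) or above 3 (raised signal); controls and wells holding fewer than 50 cells are excluded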
Meaning of the calls: active = Tnf reporter clearly lowered or raised; inactive = no clear change in Tnf reporter
Here is an unselected part of about 17,000 reagents tested. Over the whole deposit, about 1,110 (6.6%) got an active call. 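Active means lowered or raised reporter signal; replicate intensities are raw and not normalised per plate.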 A number with no mark means an inactive call. Not all columns of the deposit are shown.

{"Gene": "Uchl5", "Tnf reporter robust z-score": -0.95, "fewer than 50 cells in well": "enough cells in well"}
{"Gene": "Or9m1b", "Tnf reporter robust z-score": -0.14, "fewer than 50 cells in well": "enough cells in well"}
{"Gene": "Misp", "Tnf reporter robust z-score": -0.31, "fewer than 50 cells in well": "enough cells in well"}
{"Gene": "Btbd16", "Tnf reporter robust z-score": "3.57 (active)", "fewer than 50 cells in well": "enough cells in well"}
{"Gene": "Cdkl4", "Tnf reporter robust z-score": 1.69, "fewer than 50 cells in well": "enough cells in well"}
{"Gene": "Eci3", "fewer than 50 cells in well": "fewer than 50 cells per well; well left out of calls"}
{"Gene": "Spata31d1d", "fewer than 50 cells in well": "fewer than 50 cells per well; well left out of calls"}
{"Gene": "Pdcd6", "Tnf reporter robust z-score": 0.32, "fewer than 50 cells in well": "enough cells in well"}
{"Gene": "Tigd3", "Tnf reporter robust z-score": -1.01, "fewer than 50 cells in well": "enough cells in well"}
{"Gene": "Ppp1r21", "Tnf reporter robust z-score": -0.01, "fewer than 50 cells in well": "enough cells in well"}
{"Gene": "Chrng", "Tnf reporter robust z-score": -0.85, "fewer than 50 cells in well": "enough cells in well"}
{"Gene": "Esd", "Tnf reporter robust z-score": 0.24, "fewer than 50 cells in well": "enough cells in well"}
{"Gene": "Muc13", "Tnf reporter robust z-score": -0.63, "fewer than 50 cells in well": "enough cells in well"}
{"Gene": "Palmd", "Tnf reporter robust z-score": -1.27, "fewer than 50 cells in well": "enough cells in well"}

Laid out differently: entries from further up.
Gene	Tnf reporter robust z-score	fewer than 50 cells in well
Btbd16	3.57 (active)	enough cells in well
Cdkl4	1.69	enough cells in well
